Results on four molecules are retold here after article PMC11254670, “Soluble CD72, is a T-cell activator probably via binding to CD6 in homeostasis and autoimmunity” (Frontiers in Immunology, 2024).

Chains of the proteins cited; added tags and fusions are not shown. Residues count along the entry.
UniProt P08575, residues 26-1306: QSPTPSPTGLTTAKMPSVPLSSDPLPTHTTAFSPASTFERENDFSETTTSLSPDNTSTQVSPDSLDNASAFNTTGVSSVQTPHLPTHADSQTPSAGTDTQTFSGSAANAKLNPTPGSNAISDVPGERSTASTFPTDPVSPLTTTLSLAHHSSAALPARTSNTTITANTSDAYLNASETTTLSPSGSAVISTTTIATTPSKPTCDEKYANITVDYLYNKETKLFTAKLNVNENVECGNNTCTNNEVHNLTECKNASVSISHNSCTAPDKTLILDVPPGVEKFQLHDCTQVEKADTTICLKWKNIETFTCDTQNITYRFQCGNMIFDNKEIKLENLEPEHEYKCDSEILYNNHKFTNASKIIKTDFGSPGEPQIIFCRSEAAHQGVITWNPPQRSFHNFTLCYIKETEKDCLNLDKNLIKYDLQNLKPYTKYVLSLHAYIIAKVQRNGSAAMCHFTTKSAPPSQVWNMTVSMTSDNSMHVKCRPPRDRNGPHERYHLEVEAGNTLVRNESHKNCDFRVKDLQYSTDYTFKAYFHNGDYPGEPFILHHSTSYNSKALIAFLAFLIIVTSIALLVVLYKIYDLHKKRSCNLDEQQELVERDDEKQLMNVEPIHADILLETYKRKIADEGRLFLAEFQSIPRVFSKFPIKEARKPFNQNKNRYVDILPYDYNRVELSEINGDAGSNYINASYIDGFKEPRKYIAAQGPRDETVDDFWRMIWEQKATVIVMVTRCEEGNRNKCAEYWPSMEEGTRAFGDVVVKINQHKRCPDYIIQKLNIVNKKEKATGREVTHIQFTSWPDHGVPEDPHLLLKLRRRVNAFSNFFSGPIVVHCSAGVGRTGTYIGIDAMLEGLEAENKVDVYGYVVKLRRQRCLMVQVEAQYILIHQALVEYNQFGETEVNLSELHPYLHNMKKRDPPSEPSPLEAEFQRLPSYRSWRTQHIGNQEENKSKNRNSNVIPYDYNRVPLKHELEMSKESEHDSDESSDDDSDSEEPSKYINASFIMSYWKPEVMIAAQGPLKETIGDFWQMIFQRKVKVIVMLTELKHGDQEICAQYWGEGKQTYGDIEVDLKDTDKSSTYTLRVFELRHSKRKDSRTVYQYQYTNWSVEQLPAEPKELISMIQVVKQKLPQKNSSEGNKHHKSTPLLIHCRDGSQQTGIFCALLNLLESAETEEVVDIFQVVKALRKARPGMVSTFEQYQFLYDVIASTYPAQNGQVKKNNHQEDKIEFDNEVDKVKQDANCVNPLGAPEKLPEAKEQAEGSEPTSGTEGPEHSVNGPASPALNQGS
UniProt P05107, residues 23-769: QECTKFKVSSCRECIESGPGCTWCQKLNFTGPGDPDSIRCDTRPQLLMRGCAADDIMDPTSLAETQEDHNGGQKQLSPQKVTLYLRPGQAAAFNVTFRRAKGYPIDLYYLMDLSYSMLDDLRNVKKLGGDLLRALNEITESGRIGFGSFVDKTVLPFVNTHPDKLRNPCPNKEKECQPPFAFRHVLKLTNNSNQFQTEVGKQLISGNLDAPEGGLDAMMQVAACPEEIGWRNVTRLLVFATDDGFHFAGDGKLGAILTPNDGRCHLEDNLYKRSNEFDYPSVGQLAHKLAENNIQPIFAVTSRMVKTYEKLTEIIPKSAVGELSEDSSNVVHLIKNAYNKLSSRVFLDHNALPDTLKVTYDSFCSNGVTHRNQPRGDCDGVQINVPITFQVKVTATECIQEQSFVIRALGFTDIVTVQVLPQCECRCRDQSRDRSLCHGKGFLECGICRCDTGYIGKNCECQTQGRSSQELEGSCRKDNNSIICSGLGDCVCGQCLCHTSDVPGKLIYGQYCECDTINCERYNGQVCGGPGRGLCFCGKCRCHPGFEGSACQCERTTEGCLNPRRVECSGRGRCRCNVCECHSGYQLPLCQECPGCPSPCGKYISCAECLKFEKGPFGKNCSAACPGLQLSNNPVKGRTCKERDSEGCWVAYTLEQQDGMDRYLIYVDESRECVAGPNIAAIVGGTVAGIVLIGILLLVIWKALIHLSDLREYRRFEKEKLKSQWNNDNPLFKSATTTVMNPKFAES
UniProt Q08722, residues 19-323: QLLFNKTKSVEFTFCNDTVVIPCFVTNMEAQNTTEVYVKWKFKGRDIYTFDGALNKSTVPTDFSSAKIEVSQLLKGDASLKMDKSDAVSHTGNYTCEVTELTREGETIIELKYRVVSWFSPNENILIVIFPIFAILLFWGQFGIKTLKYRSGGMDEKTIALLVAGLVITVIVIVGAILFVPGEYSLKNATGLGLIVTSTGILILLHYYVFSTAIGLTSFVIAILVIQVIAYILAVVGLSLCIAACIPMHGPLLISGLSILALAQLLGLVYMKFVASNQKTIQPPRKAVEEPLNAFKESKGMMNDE

No constants are given. Whether binding was seen depends on the method and setting. In cells and extracts the contact can be indirect. These calls come from enrichment with a bait or labelling near it, and not all partners need be listed. Tags and fused reporters may be left off the sequences shown.

The target of this test is T1, soluble CD72 (extracellular part of human CD72, amino acids 117-359, V5 and 8xHis tagged) (human) (UniProt P21854).
T1 sequence: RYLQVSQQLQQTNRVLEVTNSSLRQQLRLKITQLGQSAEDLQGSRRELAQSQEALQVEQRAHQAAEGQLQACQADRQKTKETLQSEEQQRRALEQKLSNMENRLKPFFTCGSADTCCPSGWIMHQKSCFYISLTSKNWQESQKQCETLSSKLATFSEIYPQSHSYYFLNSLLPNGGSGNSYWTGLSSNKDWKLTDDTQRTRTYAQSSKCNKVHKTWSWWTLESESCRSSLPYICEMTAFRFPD
Put plainly: affinity purification with mass spectrometry; activated CD4+ T cells rotated with 5 ug/ml purified sCD72-V5 for 2 h at 4°C, cross-linked with 2.5 mM BS3, lysed (1% NP-40, 0.1% DOC), anti-V5 magnetic beads, elution with V5 peptide, SDS-PAGE, LC-MSMS; compared to control; only the target purified.

For PTPRC (from UniProt P08575 26-1306), the binding entry is listed as “binds”.

On to ITGB2 (from UniProt P05107 23-769), for which the binding result was “binds”.

Regarding “CD47 (from UniProt Q08722 19-323) (receptor)”, the binding entry is listed as “binds”.

B1: CD6 (receptor, UniProt P30203 18-668)
chain: HPSPAPPDQLNTSSAESELWEPGERLPVRLTNGSSSCSGTVEVRLEASWEPACGALWDSRAAEAVCRALGCGGAEAASQLAPPTPELPPPPAAGNTSVAANATLAGAPALLCSGAEWRLCEVVEHACRSDGRRARVTCAENRALRLVDGGGACAGRVEMLEHGEWGSVCDDTWDLEDAHVVCRQLGCGWAVQALPGLHFTPGRGPIHRDQVNCSGAEAYLWDCPGLPGQHYCGHKEDAGAVCSEHQSWRLTGGADRCEGQVEVHFRGVWNTVCDSEWYPSEAKVLCQSLGCGTAVERPKGLPHSLSGRMYYSCNGEELTLSNCSWRFNNSNLCSQSLAARVLCSASRSLHNLSTPEVPASVQTVTIESSVTVKIENKESRELMLLIPSIVLGILLLGSLIFIAFILLRIKGKYALPVMVNHQHLPTTIPAGSNSYQPVPITIPKEVFMLPIQVQAPPPEDSDSGSDSDYEHYDFSAQPPVALTTFYNSQRHRVTDEEVQQSRFQMPPLEEGLEELHASHIPTANPGHCITDPPSLGPQYHPRSNSESSTSSGEDYCNSPKSKLPPWNPQVFSSERSSFLEQPPNLELAGTQPAFSAGPPADDSSSTSSGEWYQNFQPPPQPPSEEQFGCPGSPSPQPDSTDNDDYDDISAA
On to B1, for which the binding entry is on record as “binds”.
